# Results taken from patent US11732029B2, “Methods and compositions for the treatment of wounds” (The University of Chicago, priority 2017, dated 2023).
# At least one peptide structure holds a part that was inferred or is arguable (an end, a ring closure or a residue). No end group written: not given here.
# System: full-thickness back-skin wounds in db/db mice
# Experiment: Mouse skin chronic wound healing model, histomorphometric analysis
# Format: in vivo
# Conditions: fibrin matrix, VEGF-A165 100 ng/wound and PDGF-BB 50 ng/wound, day 7, vs fibrin alone
sequence,measurement,value
NQEQVSPLRLVFALGTDGKKLRIKSKEKCNDGK [α2PI1-8-α33043-3067],granulation tissue,did not differ
same,wound closure,did not differ
